Reference: patent US20240199755A1, “ANTAGONISTS AND AGONISTS OF THE TRANSFERRIN RECEPTOR-2 FOR USE IN THE TREATMENT OF DISEASES OF THE BONE” (Kymab Limited, priority 2018, published 2024)
These are yes or no findings as the source states them, for the method shown. Binding calls can cover weak binding; strength is not graded here. Sequences can lack the tags named with a protein.

How the values were obtained:
BMP-2 [1] = assay: SPR steady state analysis, BMP-2 immobilised, Tfr2-ECD as analyte [panel d]
BMP-4 [2] = assay: SPR, BMP-4 immobilised, Tfr2-ECD as analyte
BMP-6 [3] = assay: SPR at high salt (500 mM NaCl in the running buffer), BMP-6 immobilised and Tfr2-ECD as analyte according to the legend; concentration not printed [panel c]
BMP-2 [4] = assay: BMP-2 competitive sandwich ELISA, BMP-2 constant at 1.5 ng/ml, blocked: BMP-2 capture and detection antibodies
BMP-4 [5] = assay: SPR (Biacore T100), Tfr2-ECD immobilised, BMP 50 nM as analyte, 37 °C
BMP-6 [6] = assay: as above
BMP-7 [7] = assay: as above
BMP-2 [8] = assay: as above
BMP-4 [9] = assay: SPR, Tfr2-ECD immobilised, BMP as analyte
BMP-6 [10] = assay: SPR, Tfr2-ECD immobilised, BMP as analyte
BMP-7 [11] = assay: SPR, Tfr2-ECD immobilised, BMP as analyte
BMP-2 [12] = assay: SPR, Tfr2-ECD immobilised, BMP as analyte
BMP-2 [13] = assay: SPR, BMP-2 immobilised, Tfr2-ECD as analyte
BMP-2 [14] = assay: Competition ELISA (BMP-2 sandwich ELISA), BMP-2 constant at 1,500 pg/ml, blocked: BMP-2 capture and detection antibodies
BMP-4 [15] = assay: SPR (Biacore T100), Tfr2-ECD immobilised, BMP 50 nM as analyte
BMP-6 [16] = assay: as above
BMP-7 [17] = assay: as above
BMP-2 [18] = assay: as above
BMP-4 [19] = assay: SPR, high salt running buffer (500 mM NaCl)
BMP-6 [20] = assay: SPR, high salt running buffer (500 mM NaCl)
BMP-2 [21] = assay: SPR, high salt running buffer (500 mM NaCl)
BMP-2 [22] = assay: SPR at high salt (500 mM NaCl in the running buffer), BMP-2 immobilised and Tfr2-ECD as analyte according to the legend; concentration not printed [panel c]
BMP-4 [23] = assay: SPR steady state analysis, BMP-4 immobilised, Tfr2-ECD as analyte [panel e]
BMP-4 [24] = assay: SPR at high salt (500 mM NaCl in the running buffer), BMP-4 immobilised and Tfr2-ECD as analyte according to the legend; concentration not printed [panel c]
BMP-4 [25] = assay: SPR, BMP immobilised, Tfr2-ECD as analyte, 500 mM NaCl (FIG. 23c)
BMP-6 [26] = assay: as above
BMP-2 [27] = assay: as above
BMP-2 [28] = assay: BMP-2 competitive sandwich ELISA, 1.5 ng/ml BMP-2 with increasing Tfr2-ECD
BMP-4 [29] = assay: SPR, Tfr2-ECD immobilised, BMP ligands 50 nM as analytes (FIG. 15a)
BMP-6 [30] = assay: as above
BMP-7 [31] = assay: as above
BMP-2 [32] = assay: as above

binding (BMP-2 [1]): binds | binding (BMP-4 [2]): binds | binding (BMP-6 [3]): binds | binding (BMP-2 [4]): binds | binding (BMP-4 [5]): binds | binding (BMP-6 [6]): binds | binding (BMP-7 [7]): binds | binding (BMP-2 [8]): binds | binding (BMP-4 [9]): binds | binding (BMP-6 [10]): binds | binding (BMP-7 [11]): binds | binding (BMP-2 [12]): binds | binding (BMP-2 [13]): binds | binding (BMP-2 [14]): binds | binding (BMP-4 [15]): binds | binding (BMP-6 [16]): binds | binding (BMP-7 [17]): binds | binding (BMP-2 [18]): binds | binding (BMP-4 [19]): binds | binding (BMP-6 [20]): binds | binding (BMP-2 [21]): binds | binding (BMP-2 [22]): binds | binding (BMP-4 [23]): binds | binding (BMP-4 [24]): binds | binding (BMP-4 [25]): binds | binding (BMP-6 [26]): binds | binding (BMP-2 [27]): binds | binding (BMP-2 [28]): binds | binding (BMP-4 [29]): binds | binding (BMP-6 [30]): binds | binding (BMP-7 [31]): binds | binding (BMP-2 [32]): binds
B1: Tfr2 extracellular domain (Tfr2-ECD), murine, aa 103-798, recombinant His-tagged (receptor, not shown: large carriers)
chain: RGSCQACGDSVLVVDEDVNPEDSGRTTLYWSDLQAMFLRFLGEGRMEDTIRLTSLRERVAGSARMATLVQDILDKLSRQKLDHVWTDTHYVGLQFPDPAHANTLHWVDADGSVQEQLPLEDPEVYCPYSATGNATGKLVYAHYGRSEDLQDLKAKGVELAGSLLLVRVGITSFAQKVAVAQDFGAQGVLIYPDPSDFSQDPHKPGLSSHQAVYGHVHLGTGDPYTPGFPSFNQTQFPPVESSGLPSIPAQPISADIADQLLRKLTGPVAPQEWKGHLSGSPYRLGPGPDLRLVVNNHRVSTPISNIFACIEGFAEPDHYVVIGAQRDAWGPGAAKSAVGTAILLELVRTFSSMVSNGFRPRRSLLFISWDGGDFGSVGATEWLEGYLSVLHLKAVVYVSLDNSVLGDGKFHAKTSPLLVSLIENILKQVDSPNHSGQTLYEQVALTHPSWDAEVIQPLPMDSSAYSFTAFAGVPAVEFSFMEDDRVYPFLHTKEDTYENLHKMLRGRLPAVVQAVAQLAGQLLIRLSHDHLLPLDFGRYGDVVLRHIGNLNEFSGDLKERGLTLQWVYSARGDYIRAAEKLRKEIYSSERNDERLMRMYNVRIMRVEFYFLSQYVSPADSPFRHIFLGQGDHTLGALVDHLRMLRADGSGAASSRLTAGLGFQESRFRRQLALLTWTLQGAANALSGDVWNIDNNF
